Measurements reported in PubChem BioAssay AID504764 (Drosophila RNAi Screening Center, 2011)

Aim: 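Knock-downs that raise or lower a Notch target reporter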 (primary screen)
System: Drosophila Kc167 cells
Reagents: long dsRNA against Drosophila genes
Time to read-out: about 5 days (4 days dsRNA, then 24 h after transfection)
Conditions: transfection of constitutively active membrane-tethered Notch lacking the extracellular domain, read 24 h later
Measurement: 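Firefly luciferase from an E(spl)m3 reporter with active Notch, plus control-promoter and uninduced reporter wells for normalisation; unnormalised counts, duplicate wells a and b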
Reading the numbers: induced reporter light, run 1, well a and induced reporter light, run 1, well b: higher = more light from the Notch target reporter with active Notch; control promoter light, run 1, well a and control promoter light, run 1, well b: higher = more light from the viral control promoter (cell number, transfection, viability); uninduced reporter light, run 1, well a: higher = more light from the Notch target reporter without active Notch
Hit rule: 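Wells with low control signal or poorly matching duplicates excluded; duplicates averaged; per source plate, z beyond ±2 for induced/control log2 ratio or beyond ±1.8 for induced/uninduced marks a hit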
Calls: active = modifier hit (raised or lowered Notch signal); inactive = not a hit
In all, the deposit lists about 22,000 reagents; shown is a random part of those with a known target gene and a result. Of all reagents, 403 (1.9%) got an active call. 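Unnormalised raw counts per well; ratio z-scores behind the hit calls and whether each hit raises or lowers signal are not deposited.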 A number with no mark means an inactive call. A plus sign joins genes that one reagent is predicted to hit. No sequences are given here. Not given: the amount of reagent.

predicted target,DRSC id,"induced reporter light, run 1, well a","induced reporter light, run 1, well b","control promoter light, run 1, well a","control promoter light, run 1, well b","uninduced reporter light, run 1, well a"
kto (kohtalo),DRSC10983,53170,53275,21810,31595,5025
CG3592,DRSC18315,1.25e5,1.04e5,1.94e5,1.81e5,9265
Or85a (Odorant receptor 85a),DRSC16764,64355,77470,74395,50900,4715
CG33120,DRSC02073,2.25e5,1.93e5,1.93e5,2.06e5,17855
Nnp-1,DRSC02165,1.43e5,1.53e5,1.44e5,1.64e5,11400
CG1636,DRSC18111,2.04e5,1.66e5,2.62e5,2.41e5,11575
ABCB7 (ATP binding cassette subfamily B member 7),DRSC08603,85930,1.18e5,2.11e5,1.60e5,5610
Grl58a (Gustatory receptor-like 58a),DRSC04145,49790,35375,37230,45465,2242
CG32687,DRSC18210,1.54e5,1.36e5,3.04e5,2.32e5,11230
CG32687,DRSC18237,1.38e5,86005,1.85e5,2.08e5,7440
Diedel,DRSC14317,1.15e5,1.17e5,1.90e5,1.83e5,10785
CG18605,DRSC06772,93760,66670,78105,67050,6700
gek (genghis khan),DRSC04688,1.53e5,2.22e5,1.60e5,1.71e5,13260
CG30429,DRSC04040,1.44e5,1.59e5,2.48e5,2.35e5,9230
TfIIB (Transcription factor IIB),DRSC03454,1.15e5,1.09e5,67345,80060,14230
MED11 (Mediator complex subunit 11),DRSC10739,7485,6365,5750,6895,3570
CG5646,DRSC15853,1.68e5,1.61e5,2.28e5,2.53e5,11675
CG9962,DRSC00739,98485,1.21e5,89460,51860,7780
Gem4b + Gem4c + Glos,DRSC18244,1.30e5,1.30e5,2.57e5,2.49e5,11515
CG15202,DRSC19649,1.23e5,1.24e5,2.25e5,2.55e5,10132
thw (thawb),DRSC12552,58335,78345,59850,71825,5020
CG1239,DRSC12204,1.33e5,1.70e5,95530,97495,11335
CG7011,DRSC09347,1.63e5,1.52e5,2.14e5,2.67e5,16980
CG15344 (retired record),DRSC18029,1.15e5,1.36e5,2.23e5,2.70e5,8805
His3.3B (Histone H3.3B),DRSC17773,76115,82605,82820,1.02e5,5225
His3.3B (Histone H3.3B),DRSC18673,12260 (active),11730,27655,38535,3050
Gbs-70E (Glycogen binding subunit 70E),DRSC11055,1.54e5,1.91e5,2.34e5,1.40e5,7665
CG3386,DRSC08566,1.38e5,1.54e5,2.38e5,1.94e5,8765
ine (inebriated),DRSC00822,1.49e5,1.78e5,1.76e5,1.73e5,14725
CG10154,DRSC09707,1.28e5,1.28e5,1.76e5,1.24e5,8375
Tao,DRSC19573,1.51e5,1.49e5,1.10e5,72625,9475
Tao,DRSC19574,1.19e5,1.06e5,97415,1.09e5,12900
CG7409,DRSC10842,1.86e5,2.18e5,2.66e5,3.13e5,13488
ppk13 (pickpocket 13),DRSC02382,50920,61975,54685,43340,2750
dlt (discs lost),DRSC08705,1.62e5,1.61e5,2.84e5,2.05e5,12170
Ir75b (Ionotropic receptor 75b),DRSC10189,1.73e5,1.71e5,2.09e5,1.68e5,7015
CG12224,DRSC14480,1.11e5,93600,1.23e5,66820,6925
CG2656,DRSC12584,1.09e5,1.31e5,92310,87980,9270
Ack (Activated Cdc42 kinase),DRSC08135,1.20e5,1.36e5,1.90e5,1.43e5,6305
CG30389,DRSC04077,63460,58495,27860,30355,5225
CG30389,DRSC04452,54840,40985,42695,42810,2610
CG31562 (retired record),DRSC12273,1.23e5,1.24e5,1.19e5,93710,8060
CG31562 (retired record),DRSC12274,30380,26330,29775,31550,2230
Tnks (tankyrase),DRSC14154,1.54e5,2.08e5,2.16e5,2.48e5,13400
Sol1,DRSC15263,1.29e5,1.15e5,1.07e5,66585,9165
Sol1,DRSC15271,97100,86440,87540,64970,5990
Sol1,DRSC15681,83125,83055,74325,64105,5195
aurA (aurora A),DRSC16905,83950,1.04e5,1.04e5,63005,5770
CG2063,DRSC06811,1.02e5 (active),1.06e5,1.00e5,1.15e5,6370
nAChRbeta2 (nicotinic Acetylcholine Receptor beta2),DRSC17010,73125,88600,75480,74555,7995
Nuf2,DRSC03123,1.15e5,1.30e5,1.36e5,1.62e5,13360
CG6052,DRSC10574,2.00e5,1.75e5,2.66e5,1.94e5,7925
Pfdn5 (Prefoldin 5),DRSC16183,1.79e5,2.03e5,2.62e5,2.72e5,15075
CG9902,DRSC20212,54370,39815,60305,42405,6640
YME1L (YME1 like ATPase),DRSC04378,1.89e5,1.76e5,1.79e5,2.04e5,13078
CG4456 + Hsp22,DRSC11187,2.07e5,1.31e5,2.37e5,1.83e5,9175
CG4456 + Hsp22,DRSC11192,95460,93460,73080,24265,9390
nAChRalpha3 (nicotinic Acetylcholine Receptor alpha3),DRSC18800,1.29e5,1.37e5,2.40e5,2.21e5,11060
Jhedup (Juvenile hormone esterase duplication),DRSC07173,52080,49630,40225,46940,5480
CG4553,DRSC15595,1.99e5,1.19e5,1.97e5,1.85e5,13785
CG33286,DRSC11691,1.56e5,1.00e5,89260,86395,14290
Dronc (Death regulator Nedd2-like caspase),DRSC11231,1.83e5,1.74e5,1.15e5,70405,12965
Adgf-A2 (Adenosine deaminase-related growth factor A2),DRSC09507,1.73e5,1.65e5,2.13e5,2.16e5,17970
NAAT1 (Nutrient Amino Acid Transporter 1),DRSC18300,1.70e5,1.52e5,2.72e5,2.99e5,11535

Entries listed so far whose target name starts with T or t (5):
predicted target,DRSC id,"induced reporter light, run 1, well a","induced reporter light, run 1, well b","control promoter light, run 1, well a","control promoter light, run 1, well b","uninduced reporter light, run 1, well a"
TfIIB (Transcription factor IIB),DRSC03454,1.15e5,1.09e5,67345,80060,14230
thw (thawb),DRSC12552,58335,78345,59850,71825,5020
Tao,DRSC19573,1.51e5,1.49e5,1.10e5,72625,9475
Tao,DRSC19574,1.19e5,1.06e5,97415,1.09e5,12900
Tnks (tankyrase),DRSC14154,1.54e5,2.08e5,2.16e5,2.48e5,13400
